# Measurements taken from PubChem BioAssay AID662 (National Center for Advancing Translational Sciences (NCATS), 2007).
# This is one part of the list. These are further read-outs of the screen, such as a control signal, another cell line or another target. No call is given for them. The list favours compounds with an active or inconclusive main result. The note in brackets gives the kind of curve behind each potency; many fits are weak.
# Assay: Cell signaling CRE-BLA (Fsk stim)
# Conditions: CHO CRE-bla reporter (cAMP response element driving beta-lactamase), forskolin EC10, beta-lactamase ratio; measured here: 460 nm blue channel
# In short: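 Reporter-gene assay: CHO cells with beta-lactamase behind cAMP responsive elements, co-treated with compound and EC10 NKH 477 for 3 hours at 37 degrees Celsius. Activity came from the 460/530 nm CCF4 emission ratio.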
row,Structure (SMILES),AC50
1,COc1ccc(-n2nnnc2S(=O)(=O)Cc2ccc(C(=O)O)cc2)cc1,"0.00398 µM [falling, full curve, poor fit]"
2,COC(=O)c1ccccc1NC(=O)c1cc(-c2cccc(OC)c2)on1,"0.251 µM [falling, full curve, poor fit]"
3,COc1ccc(S(=O)(=O)Cc2ccc(C(=O)N3CCN(c4cc(Cl)ccc4C)CC3)o2)cc1,"10 µM [falling, partial curve]"
4,c1ccc(-c2ccc(N3CCCC4(CCNCC4)C3)cc2)cc1,"25.1 µM [falling, single point]"
5,O=c1oc2c(O)c(O)cc3c(=O)oc4c(O)c(O)cc1c4c23,"0.0501 µM [rising, full curve, poor fit]"
6,CCc1nnc(NC(=O)CSc2nnc(-c3ccoc3C)n2-c2ccccc2)s1,"25.1 µM [rising, single point]"
7,COc1cccc(C2=NOC(C(=O)Nc3ccc(C(C)=O)cc3)C2)c1 (centres undefined),"15.8 µM [rising, partial curve]"
8,CC(=O)c1ccc(N2CCN(C(=O)c3cc(-c4ccc5c(c4)OCO5)nc4ccccc34)CC2)cc1,"0.00398 µM [falling, full curve, poor fit]"
9,Cc1cc(NC(=O)CSc2nc3c(c(=O)n(C)c(=O)n3C)n2C(C)C)no1,"3.16 µM [rising, full curve, poor fit]"
10,CC(=O)C1=C(C)N=c2s/c(=C/c3ccc4c(c3)OCO4)c(=O)n2C1c1ccc(N(C)C)cc1 (centres undefined),"0.0126 µM [falling, full curve, poor fit]"
11,Cc1cc(NC(=O)CSc2nnc(-c3ccoc3C)n2N)no1,"3.16 µM [falling, full curve]"
12,c1ccc2c(N3CCNCC3)nc(-c3ccc4c(c3)OCO4)nc2c1,"10 µM [rising, partial curve]"
13,CN(CCC#N)c1ncnc2scc(-c3ccccc3)c12,"31.6 µM [falling, partial curve, poor fit]"
14,Cc1cc(C)c(C#N)c(N2CCN(CCOc3ccc(Cl)cc3)CC2)n1,"20 µM [falling, partial curve, poor fit]"
15,CN(Cc1ccccc1)c1nc2c(c(=O)[nH]c(=O)n2C)n1CCCc1ccccc1,"15.8 µM [falling, single point]"
16,CCOC(=O)c1ccc(Nc2cc(C)nc3nc(C)nn23)cc1,"6.31 µM [rising, partial curve]"
17,COc1ccc(OC)c(-c2cc(C(=O)Nc3cccc(Cl)c3)no2)c1,"5.01 µM [rising, partial curve, poor fit]"
18,COc1ccc(CNC(=O)c2c(O)c3ccccc3n(C)c2=O)cc1OC,"1.26 µM [rising, partial curve]"
19,COC(=O)c1ccccc1NC(=O)c1sc(=S)n(C)c1N,"2.51 µM [rising, full curve]"
20,COc1ccc(NC(=O)C2CCCN(c3c4c(nc5ncnn35)CCC4)C2)cc1OC (centres undefined),"10 µM [rising, partial curve]"
21,CCCCn1c(=O)n(CC(O)c2ccccc2)c(=O)c2c1ncn2C1CCCC1 (centres undefined),"1 µM [falling, single point]"
22,Cc1ccc(N2CC(C(=O)N3CCN(c4ccccc4)CC3)CC2=O)cc1 (centres undefined),"3.98 µM [rising, partial curve]"

row,Structure (SMILES),AC50
1,N=C1C(c2ccccc2)=C(O)C2CCc3ccccc3N12 (centres undefined),"12.6 µM [falling, partial curve]"
2,CCOc1ccc(Nc2oc(-c3cccs3)nc2C#N)cc1,"12.6 µM [rising, partial curve]"
3,O=C(NCc1n[nH]c(=S)n1-c1ccccc1)c1ccc(S(=O)(=O)N2CCOCC2)cc1,"0.00398 µM [falling, full curve, poor fit]"
4,N#Cc1ccc(NC(=O)N2CCC(c3nc4c(nnn4Cc4cccc(Cl)c4)c(=O)[nH]3)CC2)cc1,"20 µM [rising, single point]"
5,CCOC(=O)c1c(C)[nH]c(C=Nc2ccccc2)c1O,"3.16 µM [falling, partial curve]"
6,O=C(c1cnccn1)N1CCC2(CCCN(C(c3ccccc3)c3ccccc3)C2)CC1,"12.6 µM [rising, single point]"
7,Nc1cccc(-n2nncc2-c2ccccc2)c1,"0.00794 µM [falling, partial curve, poor fit]"
8,CCNc1ncc2nc(-c3ccc(OC)cc3)c(=O)n(CCc3ccccc3)c2n1,"5.01 µM [rising, partial curve]"
9,CC(C)(C#N)Nc1ccccc1,"3.98 µM [falling, partial curve]"
10,C=CCn1c(NC(C)c2cc(Cl)ccc2O)nc2ccccc21 (centres undefined),"25.1 µM [falling, single point]"
11,N#CC1=C(N)Oc2c(sc3ccccc23)C1c1ccco1 (centres undefined),"3.16 µM [rising, single point]"
12,O=C(/C=C\c1ccc(O)cc1)c1ccc(O)cc1O,"25.1 µM [falling, single point]"
13,COc1ccc(N(CC(=O)Nc2cc(OC)ccc2OC)S(=O)(=O)c2c(C)nn(C)c2C)cc1,"3.16 µM [rising, full curve]"
14,Cc1cc(Nc2ccccc2N2CCOCC2)n2ncnc2n1,"12.6 µM [rising, single point]"
15,CCn1c(SCC(=O)N2CCCC2)nc2c1c(=O)n(C)c(=O)n2C,"5.01 µM [falling, single point]"
16,CCN1CCCC1CNc1ncnc2c1[nH]c1ccc(Cl)cc12 (centres undefined),"12.6 µM [rising, single point]"
17,CCn1c(=N)c(S(=O)(=O)c2ccc(F)cc2)cc2c(=O)n3ccccc3nc21,"2 µM [rising, full curve]"
18,CCNc1ncc2nc(-c3ccccc3)c(=O)n(Cc3cccs3)c2n1,"3.16 µM [rising, full curve]"
19,COc1ccc(NC(=O)C2CCCN2S(=O)(=O)c2ccc3c(c2)CCC(=O)N3)c(OC)c1 (centres undefined),"10 µM [rising, single point]"
20,CCc1nc(N2CCC(C)CC2)c2oc3ccccc3c2n1,"10 µM [rising, partial curve]"
21,CC(=O)N1c2ccccc2N(Cc2ccc(C)cc2C)C(=O)C1(C)C,"10 µM [rising, partial curve]"
22,COc1ccccc1-c1cc(C(F)(F)F)nc(S(=O)(=O)CCCC(=O)Nc2cc(C)on2)n1,"2.51 µM [falling, full curve]"

row,Structure (SMILES),AC50
1,CCCCN(Cc1cc2cc(OC)ccc2[nH]c1=O)C(=O)c1ccco1,"25.1 µM [rising, single point]"
2,COc1cc(-c2nc3oc4ccccc4c(=O)c3c(=O)n2Cc2ccco2)cc(OC)c1OC,"2 µM [rising, full curve]"
3,Cc1onc(-c2ccccc2)c1C(=O)NCCc1c[nH]c2ccccc12,"0.0794 µM [falling, full curve, poor fit]"
4,COc1cc2c(cc1OC)CN(C(=O)C1(c3ccccc3)CC1)CC2,"10 µM [rising, single point]"
5,O=C(NCc1cccs1)C1CCN(c2ccc(S(=O)(=O)N3CCOCC3)cc2Cl)CC1,"10 µM [rising, single point]"
6,COC(=O)[C@@]1(Cc2ccccc2)[C@H]2c3cc(C(=O)N(C)C)n(Cc4ccc(O)c(OC)c4)c3C[C@H]2CN1C(=O)c1ccccc1,"6.31 µM [rising, partial curve]"
7,CCCCn1c(SCC(=O)Nc2cc(C)[nH]n2)nc2ccsc2c1=O,"25.1 µM [rising, single point]"
8,CC(C)C[C@@H](CC(=O)N[C@@H](CCC(=O)O)CC(=O)O)NC(=O)[C@@H]1CNCC[C@H]1NC(=O)C[C@H](CCCN)NC(=O)C[C@H](CO)NC(=O)[C@@H]1CNCC[C@H]1N,"5.01 µM [falling, partial curve, poor fit]"
9,COc1cc(-c2noc(-c3ccccc3C(=O)NCc3ccco3)n2)cc(OC)c1OC,"5.01 µM [rising, partial curve]"
10,CCCCC(CC)CNC(=O)CCS(=O)(=O)c1cccc2nonc12 (centres undefined),"0.1 µM [falling, full curve]"
11,CCOC(=O)CCNC(=O)Nc1ccc2nc(C)n(Cc3cccc(Cl)c3)c(=O)c2c1,"12.6 µM [rising, partial curve]"
12,Cn1c2ccccc2c2c(C(=O)NCc3ccco3)cn(C3CCCCC3)c(=O)c21,"7.94 µM [rising, partial curve]"
13,COc1cccc2c1C(=O)c1c(O)c3c(c(O)c1C2=O)C[C@@](O)(C(C)=O)C[C@@H]3O[C@H]1C[C@H](N)[C@H](O)[C@H](C)O1,"20 µM [falling, partial curve, poor fit]"
14,O=C(COC(=O)c1cc(=O)[nH]c2ccccc12)NC(=O)NC1CCCCC1,"3.16 µM [falling, partial curve]"
15,COc1ccc(C(=O)Nc2ccccc2C(N)=O)cc1,"12.6 µM [rising, partial curve]"
16,CSc1nc(-c2ccco2)cc(-c2ccccc2)c1C#N,"15.8 µM [rising, partial curve, poor fit]"
17,CNc1nc(-c2ccccc2C(F)(F)F)nc2ccccc12,"10 µM [rising, partial curve]"
18,Cc1occc1-c1nnc(SCC(=O)NCC2CCCO2)n1C (centres undefined),"12.6 µM [rising, single point]"
19,O=C(Nn1cnnc1)c1cc2cc(Br)ccc2oc1=O,"25.1 µM [rising, single point]"
20,Cc1nc2cc(C(=O)NCCN3CCOCC3)ccc2n1-c1ccc(F)cc1F,"25.1 µM [rising, single point]"

# Ordered by SMILES length (falling): 12 of the compounds above.
row,Structure (SMILES),AC50
13,COc1cccc2c1C(=O)c1c(O)c3c(c(O)c1C2=O)C[C@@](O)(C(C)=O)C[C@@H]3O[C@H]1C[C@H](N)[C@H](O)[C@H](C)O1,"20 µM [falling, partial curve, poor fit]"
4,N#Cc1ccc(NC(=O)N2CCC(c3nc4c(nnn4Cc4cccc(Cl)c4)c(=O)[nH]3)CC2)cc1,"20 µM [rising, single point]"
13,COc1ccc(N(CC(=O)Nc2cc(OC)ccc2OC)S(=O)(=O)c2c(C)nn(C)c2C)cc1,"3.16 µM [rising, full curve]"
15,CN(Cc1ccccc1)c1nc2c(c(=O)[nH]c(=O)n2C)n1CCCc1ccccc1,"15.8 µM [falling, single point]"
21,CCCCn1c(=O)n(CC(O)c2ccccc2)c(=O)c2c1ncn2C1CCCC1 (centres undefined),"1 µM [falling, single point]"
2,COC(=O)c1ccccc1NC(=O)c1cc(-c2cccc(OC)c2)on1,"0.251 µM [falling, full curve, poor fit]"
12,c1ccc2c(N3CCNCC3)nc(-c3ccc4c(c3)OCO4)nc2c1,"10 µM [rising, partial curve]"
4,c1ccc(-c2ccc(N3CCCC4(CCNCC4)C3)cc2)cc1,"25.1 µM [falling, single point]"
10,C=CCn1c(NC(C)c2cc(Cl)ccc2O)nc2ccccc21 (centres undefined),"25.1 µM [falling, single point]"
19,COC(=O)c1ccccc1NC(=O)c1sc(=S)n(C)c1N,"2.51 µM [rising, full curve]"
11,N#CC1=C(N)Oc2c(sc3ccccc23)C1c1ccco1 (centres undefined),"3.16 µM [rising, single point]"
14,Cc1cc(Nc2ccccc2N2CCOCC2)n2ncnc2n1,"12.6 µM [rising, single point]"
